Taken from: PubChem BioAssay AID1259425 (University of Nebraska Medical Center, 2018)

- Assay: 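Compare each knockdown with KSR1 silencing using changes in marker transcripts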 (primary screen)
- Cell system: HCT116 human colon cancer cells
- Reagent: siRNA pool against human genes, 50 nM siRNA
- Detection: 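After 50 nM siRNA pool, branched-DNA assay measures six marker transcripts per well, minus blank, normalised to the geometric mean of two housekeeping transcripts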
- Reading the numbers: BNIP3L mRNA: higher = more BNIP3L transcript after knockdown; NDRG1 mRNA: higher = more NDRG1 transcript after knockdown; BNIP3 mRNA: higher = more BNIP3 transcript after knockdown; ALDOC mRNA: higher = more ALDOC transcript after knockdown; ACSL5 mRNA: higher = more ACSL5 transcript after knockdown
The whole screen tested about 14,000 reagents; this is a part drawn at random. Reagent sequences are not shown. Not stated in the record: the time to read-out.

The first 3 records as a preview:
gene | BNIP3L mRNA, set 1 | NDRG1 mRNA, set 1 | BNIP3 mRNA, set 1 | ALDOC mRNA, set 1 | ACSL5 mRNA, set 1
RNASET2 | 0.0758 | 0.165 | 0.235 | 0.0273 | 0.13
DDX3X | 0.136 | 0.0649 | 0.421 | 0.0133 | 0.158
FADS1 | 0.109 | 0.303 | 0.338 | 0.0192 | 0.203

Results, repeating the preview:
gene | BNIP3L mRNA, set 1 | NDRG1 mRNA, set 1 | BNIP3 mRNA, set 1 | ALDOC mRNA, set 1 | ACSL5 mRNA, set 1
RNASET2 | 0.0758 | 0.165 | 0.235 | 0.0273 | 0.13
DDX3X | 0.136 | 0.0649 | 0.421 | 0.0133 | 0.158
FADS1 | 0.109 | 0.303 | 0.338 | 0.0192 | 0.203
TAOK3 | 0.0545 | 0.0537 | 0.23 | 0.00683 | 0.115
CHID1 | 0.131 | 0.349 | 0.263 | 0.0532 | 0.186
FAM215A | 0.256 | 0.553 | 0.798 | 0.067 | 0.0774
TCP11L1 | 0.104 | 0.163 | 0.419 | 0.0089 | 0.169
EIF1 | 0.0251 | 0.248 | 0.211 | 0.0352 | 0.193
SELP | 0.0961 | 0.256 | 0.28 | 0.00447 | 0.182
DHCR7 | 0.158 | 0.386 | 0.474 | 0.00732 | 0.644
TMEM237 | 0.0235 | 0.0632 | 0.298 | 0.0146 | 0.254
MPV17 | 0.142 | 0.0835 | 0.316 | 0.045 | 0.109
CLIC4 | 0.0543 | 0.53 | 0.373 | 0.0181 | 0.158
EIF2A | 0.259 | 0.375 | 0.358 | 0.0861 | 0.32
MAGEA8 | 0.0575 | 0.617 | 0.323 | 0.00814 | 0.208
KCNQ2 | 0.191 | 0.305 | 0.463 | 0.0185 | 0.221
PPP1R1A | 0.0945 | 0.118 | 0.25 | 0.0322 | 0.0788
RBM22 | 0.0835 | 0.21 | 0.36 | 0.0458 | 0.139
TBC1D29P | 0.144 | 0.705 | 0.552 | 0.023 | 0.17
FARSA | 0.156 | 0.866 | 0.381 | 0.0145 | 0.223
ATR | 0.0966 | 0.112 | 0.225 | 0.0112 | 0.253
ATP13A3 | 0.165 | 0.347 | 0.321 | 0.0495 | 0.225
SCNN1D | 0.167 | 0.0823 | 0.314 | 0.0262 | 0.038
RETREG1 | 0.217 | 0.134 | 0.319 | 0.0276 | 0.199
MAMLD1 | 0.0917 | 0.215 | 0.362 | 0.0338 | 0.221
RNF216 | 0.067 | 0.0541 | 0.199 | 0.0148 | 0.0989
SYNJ1 | 0.241 | 0.469 | 0.348 | 0.0428 | 0.44
LINC00869 | 0.184 | 0.495 | 0.319 | 0.00442 | 0.577
GBP2 | 0.0496 | 0.201 | 0.162 | 0.0141 | 0.233
TIPARP | 0.103 | 0.0872 | 0.294 | 0.014 | 0.182
SEC14L3 | 0.0309 | 0.501 | 0.203 | 0.0194 | 0.28
FNDC11 | 0.228 | 0.251 | 0.367 | 0.0549 | 0.313
HAUS3 | 0.118 | 0.223 | 0.25 | 0.0325 | 0.268
C3 | 0.0686 | 0.341 | 0.307 | 0.0418 | 0.154
SPTLC2 | 0.146 | 0.165 | 0.382 | 0.0407 | 0.184
MTHFS | 0.175 | 0.622 | 0.312 | 0.0293 | 0.196
ANO3 | 0.0777 | 0.3 | 0.202 | 0.0278 | 0.202
MX1 | 0.13 | 0.146 | 0.339 | 0.0322 | 0.139
SIM1 | 0.102 | 0.11 | 0.337 | 0.0278 | 0.242
ATF3 | 0.0633 | 0.0428 | 0.308 | 0.00822 | 0.1
MRPL47 | 0.297 | 0.262 | 0.243 | 0.0319 | 0.306
ATP2B4 | 0.127 | 0.145 | 0.311 | 0.0276 | 0.0935
GLRX | 0.095 | 0.0609 | 0.25 | 0.0153 | 0.16
PRSS1 | 0.1 | 0.119 | 0.232 | 0.0318 | 0.0839
PPP1R9A | 0.0592 | 0.0928 | 0.233 | 0.00592 | 0.161
NR1I3 | 0.087 | 0.0767 | 0.272 | 0.0119 | 0.103
GNPTG | 0.093 | 0.42 | 0.286 | 0.0423 | 0.161
PI4KA | 0.21 | 0.144 | 0.331 | 0.027 | 0.627
CLDN22 | 0.0946 | 0.16 | 0.214 | 0.0397 | 0.123
NPPA | 0.082 | 0.182 | 0.264 | 0.0332 | 0.0751
POLH | 0.0741 | 0.44 | 0.237 | 0.0229 | 0.221
GIT2 | 0.323 | 0.516 | 0.634 | 0.0868 | 0.217
FAS | 0.0982 | 0.12 | 0.293 | 0.0173 | 0.0969
HERC4 | 0.101 | 0.221 | 0.317 | 0.0491 | 0.185
MXD1 | 0.112 | 0.209 | 0.231 | 0.0024 | 0.267
RPUSD4 | 0.181 | 0.233 | 0.352 | 0.125 | 0.25
MYH3 | 0.0746 | 0.0766 | 0.283 | 0.0152 | 0.11
TSHR | 0.211 | 0.131 | 0.523 | 0.0445 | 0.0952
RAPGEF5 | 0.0941 | 0.0981 | 0.35 | 0.0188 | 0.251
ATE1 | 0.187 | 0.494 | 0.283 | 0.0545 | 0.154
TMEM25 | 0.122 | 0.149 | 0.286 | 0.0311 | 0.204
SCRN3 | 0.103 | 0.179 | 0.327 | 0.0213 | 0.255
CREBL2 | 0.0708 | 0.213 | 0.341 | 0.0106 | 0.252
